# According to article PMC11749472:
# B1: TIR-myc (TIR domain of SARM1) (domain or fragment, UniProt Q6SZW1 560-703)
# chain: DTPDVFISYRRNSGSQLASLLKVHLQLHGFSVFIDVEKLEAGKFEDKLIQSVMGARNFVLVLSPGALDKCMQDHDCKDWVHKEIVTALSCGKNIVPIIDGFEWPEPQVLPEDMQAVLTFNGIKWSHEYQEATIEKIIRFLQGRS
# Biological target: ARM-Flag (ARM domain of SARM1) (human)
# Test: co-IP; HEK293T lysates in co-IP buffer (50 mM Tris-HCl pH 7.4, 150 mM NaCl, 1% NP-40, 1 mM EDTA, 5% glycerol), mouse anti-Flag beads at 4°C overnight, Western blot; for ARM-TIR also with USP13 OE, USP13 KD (siRNA cocktail) or USP13^AE OE
binder,measurement,value
B1,binding,binds

# No constants are given. Whether binding was seen depends on the method and setting. Binding seen in cells or lysates may run through a third protein. A result given as binding can be weak or reduced; the word gives no strength. Sequences can lack the tags named with a protein.
